The source of these data is patent US20020035246A1.

The chains behind the UniProt entries cited, without tags or fusion partners. Where a name states a change or a piece, a line headed by the entry shows the natural chain unless it says otherwise.
UniProt P04386: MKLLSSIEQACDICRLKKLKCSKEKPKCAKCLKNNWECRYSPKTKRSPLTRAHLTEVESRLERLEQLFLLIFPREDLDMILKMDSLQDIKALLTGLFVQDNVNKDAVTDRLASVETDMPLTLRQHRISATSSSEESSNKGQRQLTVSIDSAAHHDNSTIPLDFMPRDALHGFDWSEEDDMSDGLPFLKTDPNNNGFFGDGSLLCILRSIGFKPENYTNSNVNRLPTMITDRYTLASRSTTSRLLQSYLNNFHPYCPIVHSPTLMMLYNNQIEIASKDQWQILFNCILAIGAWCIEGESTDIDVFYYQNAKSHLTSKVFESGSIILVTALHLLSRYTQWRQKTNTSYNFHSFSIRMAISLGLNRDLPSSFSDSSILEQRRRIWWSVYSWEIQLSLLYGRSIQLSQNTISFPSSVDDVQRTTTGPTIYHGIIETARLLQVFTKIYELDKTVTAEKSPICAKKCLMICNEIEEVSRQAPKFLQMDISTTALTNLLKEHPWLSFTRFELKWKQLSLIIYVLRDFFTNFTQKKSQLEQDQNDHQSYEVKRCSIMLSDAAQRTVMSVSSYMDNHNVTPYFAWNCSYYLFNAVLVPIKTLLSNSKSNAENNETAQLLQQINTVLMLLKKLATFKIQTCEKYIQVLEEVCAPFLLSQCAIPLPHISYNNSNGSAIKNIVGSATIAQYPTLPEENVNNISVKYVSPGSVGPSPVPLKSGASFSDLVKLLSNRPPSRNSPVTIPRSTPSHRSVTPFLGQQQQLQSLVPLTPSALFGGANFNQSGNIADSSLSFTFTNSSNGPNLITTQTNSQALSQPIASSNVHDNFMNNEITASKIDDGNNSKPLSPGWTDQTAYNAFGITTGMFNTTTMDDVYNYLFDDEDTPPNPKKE
UniProt Q62432: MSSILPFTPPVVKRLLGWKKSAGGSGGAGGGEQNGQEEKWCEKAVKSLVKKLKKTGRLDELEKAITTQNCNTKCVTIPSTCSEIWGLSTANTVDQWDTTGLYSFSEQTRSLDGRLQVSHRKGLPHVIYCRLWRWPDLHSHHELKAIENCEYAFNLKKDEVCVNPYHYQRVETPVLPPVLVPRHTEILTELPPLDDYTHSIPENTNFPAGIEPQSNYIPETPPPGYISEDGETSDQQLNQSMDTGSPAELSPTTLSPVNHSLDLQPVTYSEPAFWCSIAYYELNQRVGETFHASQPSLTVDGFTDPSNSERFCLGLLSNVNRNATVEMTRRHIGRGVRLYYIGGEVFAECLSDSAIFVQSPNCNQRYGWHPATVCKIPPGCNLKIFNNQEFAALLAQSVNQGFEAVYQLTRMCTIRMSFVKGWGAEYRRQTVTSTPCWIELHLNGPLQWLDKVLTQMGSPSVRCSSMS
UniProt P97454: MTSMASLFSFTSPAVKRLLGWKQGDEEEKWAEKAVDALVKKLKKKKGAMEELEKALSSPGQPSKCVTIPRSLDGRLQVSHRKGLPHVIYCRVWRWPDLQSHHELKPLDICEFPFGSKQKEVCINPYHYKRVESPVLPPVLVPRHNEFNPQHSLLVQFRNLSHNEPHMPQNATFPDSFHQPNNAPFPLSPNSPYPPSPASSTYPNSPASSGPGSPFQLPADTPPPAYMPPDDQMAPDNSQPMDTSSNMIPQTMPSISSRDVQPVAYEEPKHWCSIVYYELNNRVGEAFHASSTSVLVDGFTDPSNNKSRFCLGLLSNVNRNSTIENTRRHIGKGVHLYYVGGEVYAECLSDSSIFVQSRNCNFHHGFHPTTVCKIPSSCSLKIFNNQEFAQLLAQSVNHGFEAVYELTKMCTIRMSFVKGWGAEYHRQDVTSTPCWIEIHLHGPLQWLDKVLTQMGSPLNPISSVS

No constants are given. Whether binding was seen depends on the method and setting. Some results given as binding are weak or reduced against the parent protein; the word gives no strength. Tags and fused reporters may be left off the sequences shown.

Assay [1] addresses mouse SMAD2 C-domain bait (GAL4DBD fusion) (mouse) (UniProt P04386+Q62432). In words: yeast two-hybrid.
Assay [2] deals with mouse SMAD5 C-domain bait (GAL4DBD fusion) (mouse) (UniProt P04386+P97454). The experiment in a line: yeast two-hybrid.

B1: SIP7 prey protein (th74; partial open reading frame fused to the GAL4 transactivating domain in pACT2) (protein, not shown: small tags and cut ends)
chain: TEPVRTDRRTEDQTATKERLLPPSGPLPRTPAPAPVTAPDTARCAVLAARHGRALSPGPRALAPSAQRCCPASGRAAETPASVGAGALRVGPAQPSQARQPTMLLLSPRSALVSVYCPQIFLLLSTAVTTLSSVVALGANIICNKIPGLAPRQRAICQSRPDAIIVIGEGAQMGIDECQHQFRFGRWNCSALGEKTVFGQELRVGSREAAFTYAITAAGVAHAVTAACSQGNLSNCGCDREKQGYYNQAEGWKWGGCSADVRYGIDFSRRFVDAREIKKNAGS
As to B1, the binding result in assay [1] and in assay [2] was “binds” throughout.
